According to PMC2323286:
No constants are given. Whether binding was seen depends on the method and setting. Tags and fused reporters may be left off the sequences shown.

Target: NSs of Germiston virus fused to the Gal4 DNA-binding domain (pGBKT7-NSsGER) (Germiston virus)
Test: two-hybrid

B1: SAP30 amino acids 1-152 fused to the Gal4 transactivating domain (pACT2-SAP30_(1–152)) (domain or fragment, UniProt O88574 1-152)
chain: MNGFTPEEMSRGGDAAAAVAAVVAAAAAAASAGNGNAAGGGAEVPGAGAVSASGPPGAAGPGPGQLCCLREDGERCGRAAGNASFSKRIQKSISQKKVKIELDKSARHLYICDYHKNLIQSVRNRRKRKGSDDDGGDSPVQDIDTPEVDLYQ
- binding: no binding
